Negatives hold for the conditions tested. At least one verdict was read from the data and is not stated in words by the source. For part of these data: Protein sequences can lack the tags named with them.
Assays:
Assay in all cases: EMSA
Settings in all cases: EMSA: 20 ng GST-fusion protein, 20 mM HEPES pH 7.8, 45 mM KCl, 10 mM NaCl, 1 mM EDTA, 1 mM DTT, 10% glycerol, 0.2 ug/uL BSA, 0.1% NP-40, 50 ng poly-dIdC; recombinant protein; protein details: GST (N-terminal, pGEX-6P-1); label: 32P
[1] = molecular target: T1, Brn2 DNA-binding domain (BD-Brn2) (Mus musculus (B6)) (UniProt P31360)
T1 sequence (looked up, limits assumed): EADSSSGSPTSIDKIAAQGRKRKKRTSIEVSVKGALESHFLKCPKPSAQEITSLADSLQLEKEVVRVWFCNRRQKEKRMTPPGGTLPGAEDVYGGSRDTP

Chains of the proteins cited; added tags and fusions are not shown. Residues count along the entry.
UniProt P63015, 190-289: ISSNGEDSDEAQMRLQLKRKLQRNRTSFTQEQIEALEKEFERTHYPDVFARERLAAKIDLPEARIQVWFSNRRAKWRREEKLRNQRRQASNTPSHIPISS

[2] = molecular target: T2, Oct6 DNA-binding domain (BD-Oct6) (Mus musculus (B6)) (UniProt P21952)
T2 sequence (looked up, limits assumed): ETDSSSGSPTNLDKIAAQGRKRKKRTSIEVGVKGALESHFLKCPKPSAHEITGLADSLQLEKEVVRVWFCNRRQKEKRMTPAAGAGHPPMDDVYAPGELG

[3] = molecular target: Pax6 DNA-binding domain (BD-Pax6) (Mus musculus (B6)) (UniProt P63015)

Measured: binding result

GGGAGTTGAGGGGACTTTCCCAGGC (double strand) [NF-kB consensus probe]
no binding: all assays above
